Measurements as given in paper PMC6756068.

B1: RasGAP of Sc4 cells (protein, UniProt E9PYG6 1-1038)
chain: MMAAEAGSEEGGPATAGPGGGAATGSSAYSAACRVKLPAALPVAAAPCPGLADADLVAALGGGAASGSGFLGTGPVAGVLGGAALTGSAAAGVAGAAAAGPAGDVAFTKGTLSLPAETLGPGGGFPPLPPPPQLPPLGSGLGTVDEGDSLDGPEYEEEEVAIPLTAPPTNQWYHGKLDRTIAEERLRQAGKSGSYLIRESDRRPGSFVLSFLSQTNVVNHFRIIAMCGDYYIGGRRFSSLSDLIGYYSHVSCLLKGEKLLYPVAPPEPVEDRRRVRAILPYTKVPDTDEISFLKGDMFIVHNELEDGWMWVTNLRTDEQGLIVEDLVEEVGREEDPHEGKIWFHGKISKQEAYNLLMTVGQVCSFLVRPSDNTPGDYSLYFRTNENIQRFKICPTPNNQFMMGGRYYNSIGDIIDHYRKEQIVEGYYLKEPVPMQDQGQVLNDTVDGKEIYNTIRRKTKDAFYKNIVKKGYLLKKGKGKRWKNLYFILEGSDAQLIYFESEKRATKPKGLIDLSVCSVYVVHDSLFGRPNCFQIVVQHFSEEHYIFYFAGETPEQAEDWMKGLQAFCSLRKSSPGTSNKRLRQVSSLVLHIEEAHKLPVKHFTNPYCNIYLNSVQVAKTHAREGQNPVWSEEFVFDDLPPDINRFEITLSNKTKKSKDPDILFMRCQLSRLQKGHATDEWFLLSSHIPLKGIEPGSLRVRARYSMEKIMPEEEYSEFKELILQKELHVVYALSHVCGQDRTLLASILLKIFLHEKLESLLLCTLNDREISMEDEATTLFRATTLASTLMEQYMKATATQFVHHALKDSILKIMESKQSCELSPSKLEKNEDVNTNLAHLLSILSELVEKIFMASEILPPTLRYIYGCLQKSVQHKWPTNNTMRTRVVSGFVFLRLICPAILNPRMFNIISDSPSPIAARTLTLVAKSVQNLANLVEFGAKEPYMEGVNPFIKSNKHRMIMFLDELGNVPELPDTTEHSRTDLSRDLAALHEICVAHSDELRTLSNERGVQQHVLKKLLAITELLQQKQNQYTKTNDIR
B2: full-length (FL) RasGAP purified from E. coli (protein, UniProt P20936 1-1047)
chain: MMAAEAGSEEGGPVTAGAGGGGAAAGSSAYPAVCRVKIPAALPVAAAPYPGLVETGVAGTLGGGAALGSEFLGAGSVAGALGGAGLTGGGTAAGVAGAAAGVAGAAVAGPSGDMALTKLPTSLLAETLGPGGGFPPLPPPPYLPPLGAGLGTVDEGDSLDGPEYEEEEVAIPLTAPPTNQWYHGKLDRTIAEERLRQAGKSGSYLIRESDRRPGSFVLSFLSQMNVVNHFRIIAMCGDYYIGGRRFSSLSDLIGYYSHVSCLLKGEKLLYPVAPPEPVEDRRRVRAILPYTKVPDTDEISFLKGDMFIVHNELEDGWMWVTNLRTDEQGLIVEDLVEEVGREEDPHEGKIWFHGKISKQEAYNLLMTVGQVCSFLVRPSDNTPGDYSLYFRTNENIQRFKICPTPNNQFMMGGRYYNSIGDIIDHYRKEQIVEGYYLKEPVPMQDQEQVLNDTVDGKEIYNTIRRKTKDAFYKNIVKKGYLLKKGKGKRWKNLYFILEGSDAQLIYFESEKRATKPKGLIDLSVCSVYVVHDSLFGRPNCFQIVVQHFSEEHYIFYFAGETPEQAEDWMKGLQAFCNLRKSSPGTSNKRLRQVSSLVLHIEEAHKLPVKHFTNPYCNIYLNSVQVAKTHAREGQNPVWSEEFVFDDLPPDINRFEITLSNKTKKSKDPDILFMRCQLSRLQKGHATDEWFLLSSHIPLKGIEPGSLRVRARYSMEKIMPEEEYSEFKELILQKELHVVYALSHVCGQDRTLLASILLRIFLHEKLESLLLCTLNDREISMEDEATTLFRATTLASTLMEQYMKATATQFVHHALKDSILKIMESKQSCELSPSKLEKNEDVNTNLTHLLNILSELVEKIFMASEILPPTLRYIYGCLQKSVQHKWPTNTTMRTRVVSGFVFLRLICPAILNPRMFNIISDSPSPIAARTLILVAKSVQNLANLVEFGAKEPYMEGVNPFIKSNKHRMIMFLDELGNVPELPDTTEHSRTDLSRDLAALHEICVAHSDELRTLSNERGAQQHVLKKLLAITELLQQKQNQYTKTNDVR

Columns and labels:
[1] = target: GST-merlin FERM with the F3 subdomain deleted; assay: pull-down; GST-merlin fragments pull down RasGAP from Sc4 cell lysate; western blot; only the target purified
[2] = target: GST-merlin tail (isoform 1); assay: as above
[3] = target: GST-merlin tail (isoform 1); assay: pull-down; GST-merlin fragments pull down FL RasGAP purified from E. coli; western blot; both purified

Binder | binding [1] | binding [2] | binding [3]
B1 | binds | binds | –
B2 | – | – | binds

These are yes or no findings as the source states them, for the method shown. Binding can be weak; no strength is given. For part of these data: In cells and extracts the contact can be indirect.
